PubChem BioAssay AID1671195 | Yale University | 2021

Purpose: 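Knockdowns that increase or decrease uptake of fluorescent LDL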 (primary screen)
Cell system: human Huh7 hepatoma cells
Reagent: siRNA pool against human genes, 18 nM
Time to read-out: about 2 to 2.5 days of knockdown, then 8 h LDL uptake
Conditions: DiI-labelled LDL at 30 µg/ml for 8 h, in lipoprotein-deficient serum medium
Read-out: 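Fluorescent LDL signal imaged in cells, scaled to the plate median, robust z-score for each replicate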
Reading the numbers: robust z-score: higher = more LDL uptake after knockdown
Rule for the call: 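a gene counts as active if at least two replicate z-scores exceed ±2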
In all, the deposit lists about 22,000 reagents; below is a random part of them. About 1,510 of all reagents (6.9%) were called active. 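Active includes knockdowns raising or lowering LDL uptake; positive z-scores mean more uptake, negative mean less.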 The numbers tell different reagents against one gene apart.

| target gene | reagent no. | robust z-score, replicate 1 | robust z-score, replicate 2 | robust z-score, replicate 3 | call |
| --- | --- | --- | --- | --- | --- |
| CCDC162P (coiled-coil domain containing 162, pseudogene) | 1 | 2.97 | 2.18 | 3.3 | active |
| CCDC162P (coiled-coil domain containing 162, pseudogene) | 2 | 0.607 | 1.37 | 0.885 | inactive |
| CCDC162P (coiled-coil domain containing 162, pseudogene) | 3 | 1.63 | 0.401 | 0.789 | inactive |
| CCDC162P (coiled-coil domain containing 162, pseudogene) | 4 | -0.757 | -1.19 | -1.04 | inactive |
| JPH3 (junctophilin 3) | 1 | -1.5 | -1.16 | -0.608 | inactive |
| ATP6V0E1 (ATPase H+ transporting V0 subunit e1) | 1 | 0.982 | 0.495 | 0.888 | inactive |
| FASTK (Fas activated serine/threonine kinase) | 1 | 3.06 | 2.8 | 2.35 | active |
| KCNK7 (potassium two pore domain channel subfamily K member 7) | 1 | 0.189 | 0.13 | 0.718 | inactive |
| LOC440378 (retired record) | 1 | -0.142 | -0.484 | -0.792 | inactive |
| MKRN3 (makorin ring finger protein 3) | 1 | 1.91 | 1.89 | 1.75 | inactive |
| SH2D4B (SH2 domain containing 4B) | 1 | -1.79 | -1.69 | -1.77 | inactive |
| USP43 (ubiquitin specific peptidase 43) | 1 | 0.876 | 0.783 | 0.713 | inactive |
| MTHFD1 | 1 | 0.889 | 0.334 | 0.776 | inactive |
| SAXO6 (stabilizer of axonemal microtubules 6) | 1 | -0.162 | -0.268 | -0.44 | inactive |
| COXFA4L3 (cytochrome c oxidase associated subunit FA4L3) | 1 | 0.0705 | 0.118 | -0.267 | inactive |
| NMRK2 (nicotinamide riboside kinase 2) | 1 | 0.178 | 0.0638 | -0.522 | inactive |
| ARMCX4 (armadillo repeat containing X-linked 4) | 1 | 0.971 | 0.796 | 0.551 | inactive |
| ARMCX4 (armadillo repeat containing X-linked 4) | 2 | -0.813 | -0.169 | -0.416 | inactive |
| LOC390550 (retired record) | 1 | 0.605 | 0.63 | 0.719 | inactive |
| KDM2A (lysine demethylase 2A) | 1 | -1.53 | 0.562 | -1.66 | inactive |
| NMT1 (N-myristoyltransferase 1) | 1 | 0.263 | 0.545 | 0.517 | inactive |
| SPNS3 | 1 | 0.201 | -0.571 | -0.803 | inactive |
| FANCF (FA complementation group F) | 1 | 1.57 | 3.35 | 2.47 | active |
| TENT5D (terminal nucleotidyltransferase 5D) | 1 | -0.0895 | -0.0571 | 0.143 | inactive |
| ABHD14A (abhydrolase domain containing 14A) | 1 | 0.323 | 1.31 | 0.191 | inactive |
| ARL11 (ARF like GTPase 11) | 1 | 0.689 | -0.42 | 0.227 | inactive |
| EEF1A1P9 | 1 | 1.14 | 2.62 | 3.13 | active |
| LOC440204 (retired record) | 1 | 0.985 | -0.171 | 0.231 | inactive |

Part of the list above, set out differently.
ARMCX4 (armadillo repeat containing X-linked 4) #2 → robust z-score, replicate 1 = -0.813; robust z-score, replicate 2 = -0.169; robust z-score, replicate 3 = -0.416; call = inactive
LOC390550 (retired record) → robust z-score, replicate 1 = 0.605; robust z-score, replicate 2 = 0.63; robust z-score, replicate 3 = 0.719; call = inactive
